Counter-ions that a name gives are not always drawn. Whole data set: some 1,000 compounds, median “cFRET/donor change relative to DMSO, normalised to beta-lapachone positive control (supercomplex I-IV assembly)” near 0.18, cut for the lowest 2% near -1. The list shows a part of the results.
system: C2C12 (NDUFB8-AcGFP / COX8A-DsRed-Monomer FRET reporter); assay: cFRET/donor change relative to DMSO, normalised to beta-lapachone positive control (supercomplex I-IV assembly) (fraction of beta-lapachone effect); higher = more respiratory supercomplex assembly; settings: 40 µM; 24 h
Procedure: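 Cells were treated with 40 uM compound for 24 h and imaged on an IN Cell Analyzer 6000. Corrected FRET was divided by donor signal (cFRET/donor) and measured in two replicate experiments. The score is (mean cFRET/donor of compound - mean DMSO) / (mean beta-lapachone 40 uM - mean DMSO). Compounds flagged for prominent cell death, abnormal morphology or decreased cell number were excluded.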

| SMILES | cFRET/donor change |
| --- | --- |
| CCN1C[C@]2(COC)[C@H](O)C[C@H](OC)[C@@]34[C@@H]5C[C@@]6(O)[C@H](OC(=O)c7ccccc7)[C@@H]5[C@@](OC(C)=O)([C@@H]([C@H](OC)[C@H]23)[C@@H]14)[C@@H](O)[C@@H]6OC [Aconitine] | 0.141 |
| CNc1ccc2oc(C[C@H]3O[C@@]4(CC[C@H]3C)O[C@H]([C@H](C)C(=O)c3ccc[nH]3)[C@H](C)C[C@H]4C)nc2c1C(=O)O [Calcimycin] | 0.519 |
| c1ccc2c(c1)[I+]c1ccccc1-2 [Diphenyleneiodonium chloride] | 1.64 |
| CC(N)Cc1cccc(C(F)(F)F)c1 (single isomer, unassigned; (+)) [(+)-Norfenfluramine hydrochloride] | 0.526 |
| N#CCCN [3-Aminopropionitrile fumarate] | -0.197 |
| Oc1ccc2c3c1O[C@H]1c4oc5ccccc5c4C[C@@]4(O)[C@@H](C2)N(CC2CC2)CC[C@]314 [Naltriben methanesulfonate] | 0.549 |
| NC(=O)CN1CCCC1=O [Piracetam] | 0.148 |
| NCc1cc(O)no1 [Muscimol hydrobromide] | 0.157 |
| CC(=O)NBr [N-Bromoacetamide] | 0.0538 |
| Cc1c2ccncc2c(C)c2c1[nH]c1ccccc12 [Ellipticine] | -2.44 |
| CC(C)NP(=O)(NC(C)C)OP(=O)(NC(C)C)NC(C)C [Tetraisopropyl pyrophosphoramide] | -0.147 |
| NCCc1c[nH]c2ccccc12 [Tryptamine hydrochloride] | -0.111 |
| Clc1ccc(N2C[C@H]3CC[C@@H](C2)N3)nn1 | 0.151 |
| Cc1ccc(S(=O)(=O)N[C@@H](CCCCN)C(=O)CCl)cc1 [Na-p-Tosyl-L-lysine chloromethyl ketone hydrochloride] | 0.485 |
| CCCN1CCC[C@@H](c2cccc(O)c2)C1 [S(-)-3PPP hydrochloride] | 0.226 |
| CCNC(=O)[C@H]1O[C@@H](n2cnc3c(N)ncnc32)[C@H](O)[C@@H]1O [5'-N-Ethylcarboxamidoadenosine] | 0.316 |
| Cc1cccc(C)c1NC1=NCCCS1 [Xylazine hydrochloride] | 0.359 |
| COc1cc([C@@H]2c3cc4c(cc3[C@H](O)[C@H]3COC(=O)[C@H]23)OCO4)cc(OC)c1OC [Podophyllotoxin] | 0.293 |
| CC[C@H]1CN2CCc3cc(OC)c(OC)cc3[C@@H]2C[C@@H]1C[C@H]1NCCc2cc(OC)c(OC)cc21 [Emetine dihydrochloride hydrate] | 0.344 |
| CS(=N)(=O)CC[C@H](N)C(=O)O (stereo partly drawn) [L-Methionine sulfoximine] | 0.00629 |
| Ic1ccccc1CNC1C2CCN(CC2)C1C(c1ccccc1)c1ccccc1 [L-703,606 oxalate salt hydrate] | 0.361 |
| CCCN(CCC)CCc1ccc(O)c(O)c1 [Dipropyldopamine hydrobromide] | 0.341 |
| NCCc1c[nH]c2ccc(O)cc12 [Serotonin hydrochloride] | -0.0728 |
| C[C@@]12N[C@@H](Cc3ccccc31)c1ccccc12 [(-)-MK-801 hydrogen maleate] | -0.159 |
| C#CCN[C@H](C)Cc1ccccc1 [R-(-)-Desmethyldeprenyl hydrochloride] | -0.331 |

| SMILES | cFRET/donor change |
| --- | --- |
| CCCN(CCC)[C@@H]1CCc2cccc(O)c2C1 [R-(+)-8-Hydroxy-DPAT hydrobromide] | 0.296 |
| CCCN1CCc2cc(O)cc3c2[C@H]1Cc1ccc(O)c(O)c1-3 [R(-)-2,10,11-Trihydroxy-N-propylnoraporphine hydrobromide] | 0.899 |
| CC1(C(=O)O)C2CCC(O2)C1(C)C(=O)O (centres undefined) [Cantharidic Acid] | -0.0828 |
| CC(C)(C)NCC(O)c1ccccc1Cl (centres undefined) [Tulobuterol hydrochloride] | 0.316 |
| C#CCOC(=O)C1=CCCN(C)C1 [Arecaidine propargyl ester hydrobromide] | 0.0559 |
| CN1[C@@H]2CC[C@H]1C[C@@H](OC(=O)C(CO)c1ccccc1)C2 (some centres undefined) [Atropine sulfate] | 0.0958 |
| c1ccc(CCCN2CCN(CCOC(c3ccccc3)c3ccccc3)CC2)cc1 | 1.23 |
| COc1cc(C(O)CN)ccc1O (racemic) [(±)-Normetanephrine hydrochloride] | 0.233 |
| CN1[C@@H]2CC[C@H]1C[C@@H](OC(c1ccccc1)c1ccccc1N)C2 (some centres undefined) [Aminobenztropine] | 0.541 |
| NCC(CP(=O)(O)O)c1ccc(Cl)cc1 (centres undefined) [Phaclofen] | -0.117 |
| COc1ccc(C(CN(C)C)C2(O)CCCCC2)cc1 (centres undefined) [Venlafaxine hydrochloride] | 0.377 |
| CN(C)C(=O)Oc1cccc([N+](C)(C)C)c1 [Neostigmine bromide] | 0.0153 |
| CNC(=O)Oc1ccc2c(c1)[C@]1(C)CCN(C)[C@@H]1N2C [(-)-Physostigmine] | 0.0769 |
| CC(N)c1cccc(Cl)c1Cl (racemic) [(±)-2,3-Dichloro-alpha-methylbenzylamine hydrochloride] | 0.216 |
| CC(=O)NCCc1c[nH]c2ccccc12 [N-Acetyltryptamine] | -0.0443 |
| Cc1cc2c(C(C)C)c(O)c(O)c(C=O)c2c(O)c1-c1c(C)cc2c(C(C)C)c(O)c(O)c(C=O)c2c1O [Gossypol] | 1.33 |
| C=CCN1CC[C@]23CCCC[C@H]2[C@H]1Cc1ccc(O)cc13 [Levallorphan tartrate] | 0.171 |
| O=c1ccc2[nH]cc(C3=CCNCC3)c2[nH]1 | 1.34 |
| CN(C)C(=O)Oc1ccc[n+](C)c1 [Pyridostigmine bromide] | 0.227 |
| CN1[C@@H]2C[C@@H](OC(=O)[C@H](CO)c3ccccc3)C[C@H]1[C@H](O)C2 (racemic) [(+/-)-Anisodamine] | 0.269 |
| Clc1ccc(N2CCN(Cc3c[nH]c4ncccc34)CC2)cc1 [L-745,870 hydrochloride] | 0.227 |
| CCn1cnc2c(Nc3cccc(Cl)c3)nc(N[C@@H]3CCCC[C@@H]3N)nc21 | 0.598 |
| NCCCNCCSP(=O)(O)O [Amifostine] | 0.219 |
| NCCc1c[nH]c2ccc(C(N)=O)cc12 [5-Carboxamidotryptamine maleate] | 0.495 |
| CCCC[N+]1(C)[C@@H]2C[C@@H](OC(=O)[C@H](CO)c3ccccc3)C[C@H]1[C@@H]1O[C@@H]12 (single isomer, unassigned; (-)) [(-)-Scopolamine,n-Butyl-, bromide] | 0.541 |

Two entries from above, as tab-separated lines:
SMILES	cFRET/donor change
CC(=O)NCCc1c[nH]c2ccccc12 [N-Acetyltryptamine]	-0.0443
CCn1cnc2c(Nc3cccc(Cl)c3)nc(N[C@@H]3CCCC[C@@H]3N)nc21	0.598

(next part)

| SMILES | cFRET/donor change |
| --- | --- |
| c1ccc2sc(C3(N4CCCCC4)CCCCC3)cc2c1 [BTCP hydrochloride] | 0.252 |
| C[N+]1(C)C2CCC1CC(OC(=O)c1c[nH]c3ccccc13)C2 (centres undefined) [3-Tropanylindole-3-carboxylate methiodide] | -0.326 |
| N#C/C(=C\c1ccc(O)c(O)c1)C(N)=S [Tyrphostin 47] | -0.506 |
| COc1ccc(OC)c(C(O)C(C)N)c1 (centres undefined) [Methoxamine hydrochloride] | 0.714 |
| C[C@@]12C(=O)OC(=O)[C@]1(C)[C@H]1CC[C@@H]2O1 [Cantharidin] | -0.151 |
| NC1CCc2cc(O)c(O)cc2C1 (centres undefined) [6,7-ADTN hydrobromide] | 0.283 |
| NC(CP(=O)(O)O)C(=O)O (racemic) [(±)-2-Amino-3-phosphonopropionic acid] | 0.482 |
| COc1ccc2c(c1OC)C(=O)OC2C1c2cc3c(cc2CCN1C)OCO3 (single isomer, unassigned; (+)) [(+)-Hydrastine] | 0.0426 |
| O=C1C=CC(=O)C=C1 [p-Benzoquinone] | 0.485 |
| CC1=NN=C(c2ccc(N)cc2)c2cc3c(cc2C1)OCO3 | 0.287 |
| CC(=O)c1c(O)c(C)c(O)c(Cc2c(O)c3c(c(C(=O)/C=C/c4ccccc4)c2O)OC(C)(C)C=C3)c1O [Rottlerin] | -0.348 |
| COc1ccccc1N1CCNCC1 [1-(2-Methoxyphenyl)piperazine hydrochloride] | -0.283 |
| C[C@@H]1O[C@@H](O[C@H]2C[C@@H](O)[C@]3(CO)[C@H]4[C@H](O)C[C@]5(C)[C@@H]([C@@H]6COC(=O)C6)CC[C@]5(O)[C@@H]4CC[C@]3(O)C2)[C@H](O)[C@H](O)[C@H]1O [Dihydroouabain] | 0.51 |
| CC(=O)OCC1=C(C(=O)[O-])N2C(=O)[C@@H](NC(=O)CCC[C@@H](N)C(=O)[O-])[C@H]2SC1.[Zn+2] [Cephalosporin C zinc salt] | 0.245 |
| CN1C(=O)CCS(=O)(=O)C1c1ccc(Cl)cc1 (centres undefined) [Chlormezanone] | 0.213 |
| O=P1(N(CCCl)CCCl)NCCCO1 (centres undefined) [Cyclophosphamide monohydrate] | 0.0561 |
| O=C(O)Cc1cnc[nH]1 [Imidazole-4-acetic acid hydrochloride] | 0.0409 |
| O=C(O)[C@@H]1CCN1 [L-azetidine-2-carboxylic acid] | 0.0533 |
| Cc1cc([C@@H]2CCCN2C)on1 [ABT-418 hydrochloride] | 0.00506 |
| COc1cc2c(c(OC)c1OC)-c1ccc(OC)c(=O)cc1[C@@H](NC(C)=O)CC2 [Colchicine] | 0.534 |
| CC[C@@H](CO)NC(=O)[C@@H]1C=C2c3cccc4c3c(cn4C)C[C@H]2N(C)C1 [Methysergide maleate] | 0.494 |
| CC(C)C1CNC(C(=O)O)C1CC(=O)O (centres undefined) [Dihydrokainic acid] | 0.519 |
| C[C@]12CC[C@@H](O)C[C@@H]1CC[C@@H]1[C@@H]2CC[C@]2(C)[C@@H](C(=O)CO)CC[C@@H]12 [3-alpha,21-Dihydroxy-5-alpha-pregnan-20-one] | 0.00272 |
| CCCN(CCC)C1CCc2cccc(O)c2C1 (racemic) [(±)-8-Hydroxy-DPAT hydrobromide] | 0.0524 |

Reprinted at random: 4 compounds from above

| SMILES | cFRET/donor change |
| --- | --- |
| C[N+]1(C)C2CCC1CC(OC(=O)c1c[nH]c3ccccc13)C2 (centres undefined) [3-Tropanylindole-3-carboxylate methiodide] | -0.326 |
| COc1cc2c(c(OC)c1OC)-c1ccc(OC)c(=O)cc1[C@@H](NC(C)=O)CC2 [Colchicine] | 0.534 |
| O=C(O)[C@@H]1CCN1 [L-azetidine-2-carboxylic acid] | 0.0533 |
| CC[C@@H](CO)NC(=O)[C@@H]1C=C2c3cccc4c3c(cn4C)C[C@H]2N(C)C1 [Methysergide maleate] | 0.494 |

From the supplement of paper PMC9877034
